Some of the results follow.
Tests used:
Test in all cases: log2 fold change, soluble protein after heating vs DMSO (PISA); higher = thermal stabilisation; K562 cells, 10 uM, 30 min; active = over 0.2 and 3.5 SD of the protein, either way, in both replicates (recomputed)
[1] = compound: CS(=O)(=O)c1ccc(-c2cnc(N)c(C(=O)Nc3ccccc3)n2)cc1
Outline: (§1)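 Aliquots of K562 cells (2×10^6 cells/mL) treated with 10 μM compound for 30 min were heated for 3 min over 48°C-58°C. After pooling and extraction in PBS with 0.5% NP-40 at 4°C, soluble protein from a 21,000xg, 90 min spin was quantified by TMTpro 16plex LC-MS/MS with channel sums equalised. Thermal stability is expressed against control samples, from duplicates, as a log2 fold change.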

Protein sequences, listed by entry. Tags and fused reporters are not part of them. Lines headed by an entry give the natural chain unless they say otherwise; changes in a name come on top.
UniProt P17707: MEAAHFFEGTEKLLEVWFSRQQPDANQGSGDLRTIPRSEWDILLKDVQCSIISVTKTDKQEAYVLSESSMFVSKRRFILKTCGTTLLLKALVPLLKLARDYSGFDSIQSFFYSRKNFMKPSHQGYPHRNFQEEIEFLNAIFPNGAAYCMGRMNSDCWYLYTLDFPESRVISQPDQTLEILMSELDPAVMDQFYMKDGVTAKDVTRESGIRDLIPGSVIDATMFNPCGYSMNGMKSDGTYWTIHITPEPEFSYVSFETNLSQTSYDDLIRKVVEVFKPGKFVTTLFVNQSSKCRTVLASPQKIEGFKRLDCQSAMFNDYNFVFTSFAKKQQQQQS
UniProt P55008: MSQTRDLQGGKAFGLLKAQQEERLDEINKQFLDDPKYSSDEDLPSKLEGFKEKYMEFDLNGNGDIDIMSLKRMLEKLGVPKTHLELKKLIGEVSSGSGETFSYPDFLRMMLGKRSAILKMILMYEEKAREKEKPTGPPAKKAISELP
UniProt P04075: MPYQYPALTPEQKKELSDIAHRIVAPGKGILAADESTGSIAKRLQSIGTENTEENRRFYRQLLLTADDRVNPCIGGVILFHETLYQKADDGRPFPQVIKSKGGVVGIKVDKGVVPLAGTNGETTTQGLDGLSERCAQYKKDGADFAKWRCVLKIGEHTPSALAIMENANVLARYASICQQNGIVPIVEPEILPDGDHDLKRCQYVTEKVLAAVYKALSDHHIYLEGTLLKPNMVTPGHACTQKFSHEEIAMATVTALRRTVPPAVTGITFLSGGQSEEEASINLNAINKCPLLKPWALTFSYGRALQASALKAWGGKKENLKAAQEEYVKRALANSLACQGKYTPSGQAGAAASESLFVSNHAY
UniProt P51857: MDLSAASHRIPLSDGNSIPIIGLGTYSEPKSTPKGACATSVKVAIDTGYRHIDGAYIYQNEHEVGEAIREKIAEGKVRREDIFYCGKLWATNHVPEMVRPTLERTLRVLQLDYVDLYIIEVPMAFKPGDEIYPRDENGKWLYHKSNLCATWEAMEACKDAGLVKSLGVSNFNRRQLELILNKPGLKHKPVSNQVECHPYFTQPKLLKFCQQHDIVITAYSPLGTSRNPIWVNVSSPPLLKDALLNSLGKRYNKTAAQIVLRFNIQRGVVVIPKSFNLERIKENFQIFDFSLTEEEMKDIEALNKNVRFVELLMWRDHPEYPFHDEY
UniProt Q9NP73: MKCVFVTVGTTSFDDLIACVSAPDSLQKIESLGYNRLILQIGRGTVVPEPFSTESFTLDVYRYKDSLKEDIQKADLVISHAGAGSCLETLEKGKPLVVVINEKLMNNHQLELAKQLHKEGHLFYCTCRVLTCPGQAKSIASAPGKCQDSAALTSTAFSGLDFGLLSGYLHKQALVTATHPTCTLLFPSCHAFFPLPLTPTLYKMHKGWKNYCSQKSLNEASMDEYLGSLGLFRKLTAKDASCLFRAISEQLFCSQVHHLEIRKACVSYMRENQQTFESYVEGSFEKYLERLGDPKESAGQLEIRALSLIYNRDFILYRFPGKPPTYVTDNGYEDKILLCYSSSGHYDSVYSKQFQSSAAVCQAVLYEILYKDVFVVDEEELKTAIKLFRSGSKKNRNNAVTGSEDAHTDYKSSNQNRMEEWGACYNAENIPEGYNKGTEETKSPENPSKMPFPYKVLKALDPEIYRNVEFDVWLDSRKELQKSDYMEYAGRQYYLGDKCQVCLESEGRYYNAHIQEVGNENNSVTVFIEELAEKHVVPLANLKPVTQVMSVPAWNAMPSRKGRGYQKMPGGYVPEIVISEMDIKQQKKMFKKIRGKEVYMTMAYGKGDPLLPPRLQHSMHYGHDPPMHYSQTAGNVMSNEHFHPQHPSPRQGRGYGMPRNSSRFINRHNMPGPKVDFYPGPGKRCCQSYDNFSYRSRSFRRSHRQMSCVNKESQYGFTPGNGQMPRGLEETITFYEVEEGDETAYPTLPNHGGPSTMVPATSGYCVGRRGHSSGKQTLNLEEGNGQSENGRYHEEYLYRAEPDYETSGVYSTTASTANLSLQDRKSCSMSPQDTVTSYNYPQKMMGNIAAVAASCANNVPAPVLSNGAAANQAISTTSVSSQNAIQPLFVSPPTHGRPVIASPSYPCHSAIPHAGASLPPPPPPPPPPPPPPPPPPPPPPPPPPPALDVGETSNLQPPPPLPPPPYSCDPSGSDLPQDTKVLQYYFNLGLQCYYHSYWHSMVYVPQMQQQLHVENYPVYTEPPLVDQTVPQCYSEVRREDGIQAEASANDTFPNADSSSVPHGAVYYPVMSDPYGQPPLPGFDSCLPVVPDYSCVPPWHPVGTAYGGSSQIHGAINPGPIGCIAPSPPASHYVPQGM
UniProt Q9BQI0: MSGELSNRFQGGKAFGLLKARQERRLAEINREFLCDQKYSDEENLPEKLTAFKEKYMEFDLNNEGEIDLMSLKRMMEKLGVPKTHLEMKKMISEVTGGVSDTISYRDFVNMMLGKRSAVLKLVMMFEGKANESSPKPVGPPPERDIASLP
UniProt P20933: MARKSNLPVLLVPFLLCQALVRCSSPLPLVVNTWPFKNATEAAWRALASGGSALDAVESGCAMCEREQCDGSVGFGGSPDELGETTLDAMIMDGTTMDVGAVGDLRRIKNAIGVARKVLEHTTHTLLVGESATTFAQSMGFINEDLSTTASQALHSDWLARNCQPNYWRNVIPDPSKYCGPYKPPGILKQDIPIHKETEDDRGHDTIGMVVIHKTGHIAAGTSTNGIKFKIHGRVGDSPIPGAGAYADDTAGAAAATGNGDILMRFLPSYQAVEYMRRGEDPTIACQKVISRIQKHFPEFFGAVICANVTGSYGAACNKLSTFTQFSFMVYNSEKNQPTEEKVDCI
UniProt Q86V24: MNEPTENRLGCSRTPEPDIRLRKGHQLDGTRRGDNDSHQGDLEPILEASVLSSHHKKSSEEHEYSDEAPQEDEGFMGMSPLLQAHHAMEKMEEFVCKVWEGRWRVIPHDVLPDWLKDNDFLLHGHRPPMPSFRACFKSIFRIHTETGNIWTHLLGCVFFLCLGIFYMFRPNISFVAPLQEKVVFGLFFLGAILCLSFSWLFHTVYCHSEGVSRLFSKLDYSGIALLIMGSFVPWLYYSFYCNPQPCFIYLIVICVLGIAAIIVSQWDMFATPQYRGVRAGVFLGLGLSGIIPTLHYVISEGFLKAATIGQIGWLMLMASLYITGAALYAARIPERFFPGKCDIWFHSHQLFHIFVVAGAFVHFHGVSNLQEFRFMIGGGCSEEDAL
UniProt O94910: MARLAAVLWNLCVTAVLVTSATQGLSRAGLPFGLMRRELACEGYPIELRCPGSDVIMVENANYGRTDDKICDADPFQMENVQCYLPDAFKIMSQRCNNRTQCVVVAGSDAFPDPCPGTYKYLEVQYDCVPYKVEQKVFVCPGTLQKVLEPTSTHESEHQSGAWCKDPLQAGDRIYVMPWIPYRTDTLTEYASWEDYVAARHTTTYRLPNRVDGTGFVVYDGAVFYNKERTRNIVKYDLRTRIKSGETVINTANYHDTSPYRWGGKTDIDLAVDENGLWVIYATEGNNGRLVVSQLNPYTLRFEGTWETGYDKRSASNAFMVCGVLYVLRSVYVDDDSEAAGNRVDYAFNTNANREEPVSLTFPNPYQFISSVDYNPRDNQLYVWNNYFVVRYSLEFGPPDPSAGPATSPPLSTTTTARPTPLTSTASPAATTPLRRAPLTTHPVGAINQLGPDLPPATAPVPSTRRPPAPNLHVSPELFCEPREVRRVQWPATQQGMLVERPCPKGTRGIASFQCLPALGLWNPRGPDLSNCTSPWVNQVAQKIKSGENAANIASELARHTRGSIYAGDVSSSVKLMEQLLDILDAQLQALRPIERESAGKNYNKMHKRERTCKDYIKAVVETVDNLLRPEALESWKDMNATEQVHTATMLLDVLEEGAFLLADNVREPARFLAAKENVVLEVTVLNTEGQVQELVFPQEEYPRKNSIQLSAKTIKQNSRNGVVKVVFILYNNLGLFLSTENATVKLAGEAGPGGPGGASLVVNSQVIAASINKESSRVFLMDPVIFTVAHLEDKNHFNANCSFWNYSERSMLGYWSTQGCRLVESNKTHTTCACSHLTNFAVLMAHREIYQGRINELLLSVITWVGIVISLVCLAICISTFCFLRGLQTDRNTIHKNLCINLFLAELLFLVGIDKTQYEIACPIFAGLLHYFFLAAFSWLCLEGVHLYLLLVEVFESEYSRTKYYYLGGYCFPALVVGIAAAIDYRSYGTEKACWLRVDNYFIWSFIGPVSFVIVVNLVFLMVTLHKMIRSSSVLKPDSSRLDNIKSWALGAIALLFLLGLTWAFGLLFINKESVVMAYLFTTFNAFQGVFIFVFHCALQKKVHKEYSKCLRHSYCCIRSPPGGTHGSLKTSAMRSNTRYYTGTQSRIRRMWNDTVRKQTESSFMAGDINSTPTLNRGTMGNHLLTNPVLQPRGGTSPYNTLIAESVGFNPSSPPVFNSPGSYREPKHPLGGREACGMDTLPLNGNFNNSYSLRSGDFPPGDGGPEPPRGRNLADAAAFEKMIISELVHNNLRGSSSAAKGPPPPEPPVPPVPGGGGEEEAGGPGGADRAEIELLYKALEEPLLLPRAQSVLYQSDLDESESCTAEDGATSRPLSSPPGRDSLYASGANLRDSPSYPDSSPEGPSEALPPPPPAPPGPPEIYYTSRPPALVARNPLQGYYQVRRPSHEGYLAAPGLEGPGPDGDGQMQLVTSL
UniProt Q9BS18, whole entry, looked up: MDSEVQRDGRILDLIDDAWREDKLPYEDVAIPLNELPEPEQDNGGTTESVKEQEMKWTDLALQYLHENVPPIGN
UniProt Q6RW13: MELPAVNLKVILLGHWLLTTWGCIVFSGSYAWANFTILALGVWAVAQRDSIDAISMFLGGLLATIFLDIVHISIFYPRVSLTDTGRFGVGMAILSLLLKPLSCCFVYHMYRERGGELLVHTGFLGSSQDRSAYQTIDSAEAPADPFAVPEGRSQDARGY
UniProt Q6QNK2: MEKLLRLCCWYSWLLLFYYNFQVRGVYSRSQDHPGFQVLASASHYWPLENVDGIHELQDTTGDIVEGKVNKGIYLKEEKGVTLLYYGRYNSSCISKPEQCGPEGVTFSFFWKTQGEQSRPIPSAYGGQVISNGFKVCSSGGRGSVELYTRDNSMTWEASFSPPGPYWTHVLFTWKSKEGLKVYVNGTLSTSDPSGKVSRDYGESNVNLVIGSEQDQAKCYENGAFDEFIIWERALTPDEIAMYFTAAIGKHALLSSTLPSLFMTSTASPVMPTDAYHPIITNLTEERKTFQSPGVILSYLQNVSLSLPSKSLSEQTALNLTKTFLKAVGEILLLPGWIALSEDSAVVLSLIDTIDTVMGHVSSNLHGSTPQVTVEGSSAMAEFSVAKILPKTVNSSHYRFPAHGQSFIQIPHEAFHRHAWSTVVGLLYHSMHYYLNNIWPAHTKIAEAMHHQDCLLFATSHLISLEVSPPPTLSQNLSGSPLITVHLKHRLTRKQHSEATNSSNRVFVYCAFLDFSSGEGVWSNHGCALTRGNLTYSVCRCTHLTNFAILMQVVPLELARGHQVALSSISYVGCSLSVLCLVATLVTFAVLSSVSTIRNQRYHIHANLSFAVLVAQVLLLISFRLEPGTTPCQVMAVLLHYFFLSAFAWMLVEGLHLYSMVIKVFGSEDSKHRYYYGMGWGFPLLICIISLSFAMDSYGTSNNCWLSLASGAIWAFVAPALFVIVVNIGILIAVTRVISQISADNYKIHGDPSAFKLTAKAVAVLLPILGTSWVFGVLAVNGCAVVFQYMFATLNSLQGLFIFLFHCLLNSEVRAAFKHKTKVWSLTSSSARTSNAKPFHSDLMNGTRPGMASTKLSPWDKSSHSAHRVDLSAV
UniProt P09917: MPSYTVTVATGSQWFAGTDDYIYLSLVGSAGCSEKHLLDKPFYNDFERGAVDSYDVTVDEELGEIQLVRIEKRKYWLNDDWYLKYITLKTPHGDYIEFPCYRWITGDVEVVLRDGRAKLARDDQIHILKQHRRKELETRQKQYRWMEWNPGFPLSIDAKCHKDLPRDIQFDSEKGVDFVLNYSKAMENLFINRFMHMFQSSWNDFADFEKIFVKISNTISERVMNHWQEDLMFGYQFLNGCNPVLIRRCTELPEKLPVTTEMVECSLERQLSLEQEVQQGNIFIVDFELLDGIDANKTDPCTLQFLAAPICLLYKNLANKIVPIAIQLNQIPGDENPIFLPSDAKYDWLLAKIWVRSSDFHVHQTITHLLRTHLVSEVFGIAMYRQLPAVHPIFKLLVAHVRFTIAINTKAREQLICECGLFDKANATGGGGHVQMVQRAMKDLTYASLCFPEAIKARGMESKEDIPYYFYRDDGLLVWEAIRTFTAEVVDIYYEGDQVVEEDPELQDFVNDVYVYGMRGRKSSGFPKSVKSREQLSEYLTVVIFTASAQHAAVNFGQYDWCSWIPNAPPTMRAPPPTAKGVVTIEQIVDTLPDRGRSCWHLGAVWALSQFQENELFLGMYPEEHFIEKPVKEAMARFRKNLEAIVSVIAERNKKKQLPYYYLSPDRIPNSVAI
UniProt Q9NZD4: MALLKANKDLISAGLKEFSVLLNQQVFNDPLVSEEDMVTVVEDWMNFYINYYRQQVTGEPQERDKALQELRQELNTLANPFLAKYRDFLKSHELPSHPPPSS

[2] = compound: C[C@@H](Oc1cc(-c2cnn(C3CCNCC3)c2)cnc1N)c1c(Cl)ccc(F)c1Cl [crizotinib]
Outline: as §1

[3] = compound: Cc1cc(Nc2cc(CN3CCOCC3)c3nc(C)c(Cc4ccc(Cl)cc4F)n3n2)n[nH]1 [gandotinib]
Outline: as §1

[4] = compound: Cc1ccc(-n2nc(C(C)(C)C)cc2NC(=O)Nc2ccc(OCCN3CCOCC3)c3ccccc23)cc1 [doramapimod]
Outline: as §1

[5] = compound: C[C@@H]1COCCN1C2=NC(=NC(=C2)C3(CC3)S(=O)(=O)C)C4=C5C=CNC5=CC=C4
Outline: as §1

[6] = compound: Cc1ccc(C(=O)N(CCCN)[C@@H](c2nc3cc(Cl)ccc3c(=O)n2Cc2ccccc2)C(C)C)cc1 [ispinesib]
Outline: as §1

[7] = compound: C[C@H](C1=CC=C(C=C1)C(=O)NC2=C3C=CNC3=NC=C2)N
Outline: as §1

[8] = compound: C[C@H](Nc1ncnc2nc[nH]c12)c1cc2cccc(Cl)c2c(=O)n1-c1ccccc1 [duvelisib]
Outline: as §1

[9] = compound: Cc1cc(Nc2cc(N3CCN(C)CC3)nc(Sc3ccc(NC(=O)C4CC4)cc3)n2)n[nH]1 [tozasertib]
Outline: as §1

[10] = compound: Cc1cc(SCc2sc(-c3ccc(C(F)(F)F)cc3)nc2C)ccc1OCC(=O)O
Outline: as §1

Measured: log2 fold change

ADNP (UniProt Q9H2P0)
inactive: [1] 0.002 | [2] 0.05 | [3] -0.14 | [4] 0.001

AMD1 (UniProt P17707)
inactive: [1] -0.058 | [2] 0.059 | [5] 0.035 | [3] 0.043 | [4] -0.07 | [6] 0.008

AGPAT4 (UniProt Q9NRZ5)
inactive: [1] 0.003 | [7] 0.002 | [8] 0.098 | [3] 0.007 | [9] -0.013 | [10] 0.083 | [6] -0.059

AFF4 (UniProt Q9UHB7)
inactive: [1] 0.028 | [5] -0.197 | [8] -0.034 | [3] -0.193 | [10] 0.122

ADD1 isoform 3 (UniProt P35611)
inactive: [1] 0.018 | [2] 0.005 | [5] -0.011 | [7] -0.109 | [3] -0.054 | [10] -0.015 | [4] 0.001 | [6] 0.045

ADGRV1 (UniProt Q8WXG9)
inactive: [1] 0.177 | [2] -0.021 | [5] 0.066 | [7] 0.269 | [3] -0.591 | [4] 0.096

AIF1 (UniProt P55008)
inactive: [1] 0.008 | [5] 0.11 | [6] -0.317

AMZ2 (UniProt Q86W34)
inactive: [1] 0.041 | [5] 0.054 | [8] -0.204 | [10] 0.299 | [6] -0.168

ALDOA (UniProt P04075)
inactive: [1] 0.086 | [8] -0.033 | [3] -0.005 | [9] -0.102 | [10] -0.016 | [6] -0.202

ADPRH (UniProt P54922)
inactive: [1] 0.123 | [2] 0.056 | [5] 0.201 | [3] 0.157 | [4] -0.071 | [6] -0.002

AKR1D1 (UniProt P51857)
inactive: [7] 0.157 | [8] 0.031 | [3] 0.134 | [9] -0.321 | [10] 0.029

ANAPC11 (UniProt Q9NYG5)
inactive: [7] -0.027 | [8] 0.029 | [10] -0.048

ALG13 isoform 2 (UniProt Q9NP73)
inactive: [5] 0.077 | [8] 0.052 | [3] -0.128 | [10] 0.068

AIF1L isoform 2 (UniProt Q9BQI0)
inactive: [5] -0.036 | [7] -0.164 | [8] -0.019 | [3] 0.02 | [10] 0.264 | [6] 0.02

AFF1 isoform 2 (UniProt P51825)
inactive: [2] -0.084 | [5] -0.011 | [8] 0.031 | [3] 0.049 | [10] -0.135 | [4] 0.123

AGA (UniProt P20933)
inactive: [7] 0.118 | [3] -0.041

ADIPOR2 (UniProt Q86V24)
inactive: [7] 0.099 | [8] 0.022 | [3] -0.047 | [9] -0.01 | [10] -0.069

ALDH3A2 isoform 2 (UniProt P51648)
inactive: [2] 0.042 | [8] -0.018 | [10] 0.082 | [4] -0.01

ADGRL1 (UniProt O94910)
inactive: [3] -0.211

ANAPC13 (UniProt Q9BS18)
inactive: [5] 0.069

AGAP1 (UniProt Q9UPQ3)
inactive: [2] -0.098 | [7] -0.041 | [8] -0.091 | [10] 0.034 | [4] 0.097 | [6] -0.011

ANAPC15 isoform 2 (UniProt P60006)
inactive: [2] 0.016 | [7] 0.228 | [9] -0.023 | [4] -0.059

AGTRAP isoform 2 (UniProt Q6RW13)
inactive: [3] 0.006 | [9] 0.005

ADGRD1 isoform 4 (UniProt Q6QNK2)
inactive: [2] -0.001 | [7] 0.078 | [8] -0.148 | [9] -0.091 | [10] 0.05 | [4] -0.004

AMMECR1 (UniProt Q9Y4X0)
inactive: [5] 0.05 | [7] -0.219 | [8] 0.034 | [10] 0.056 | [6] -0.57

Two entries picked at random from those above, as already listed:
ADGRL1 (UniProt O94910)
inactive: [3] -0.211

ALG13 isoform 2 (UniProt Q9NP73)
inactive: [5] 0.077 | [8] 0.052 | [3] -0.128 | [10] 0.068

The results go on:

ALOX12B (UniProt O75342)
inactive: [1] -0.149 | [8] -0.388 | [9] -0.084 | [10] -0.422 | [6] 0.347

ALOX5 (UniProt P09917)
inactive: [8] -0.042 | [9] -0.08 | [10] -0.034

ADCY7 (UniProt P51828)
inactive: [5] -0.041 | [7] -0.023 | [8] -0.015 | [3] -0.437 | [10] 0.078 | [6] 0.008

AGTPBP1 isoform 3 (UniProt Q9UPW5)
inactive: [2] 0.009 | [8] 0.151 | [10] -0.111 | [4] -0.123 | [6] -0.033

AEBP2 (UniProt Q6ZN18)
inactive: [2] 0.084 | [5] -0.017 | [4] -0.083

AHSP (UniProt Q9NZD4)
inactive: [6] 0.301

ALMS1 (UniProt Q8TCU4)
inactive: [3] 0.013

AIG1 (UniProt Q9NVV5)
inactive: [8] 0.198 | [3] 0.065 | [9] -0.146 | [10] -0.287

AMBP (UniProt P02760)
inactive: [2] 0.19 | [7] 0.118 | [8] -0.332 | [3] -0.134 | [10] -0.205 | [4] -0.01

ADD2 isoform 9 (UniProt P35612)
inactive: [1] -0.067 | [6] 0.04

AMBRA1 isoform 5 (UniProt Q9C0C7)
inactive: [5] 0.083 | [7] -0.08 | [8] 0.137 | [9] -0.024 | [10] 0.125

ALKBH1 (UniProt Q13686)
inactive: [2] 0.095 | [5] -0.026 | [7] 0.053 | [8] 0.067 | [3] 0.151 | [9] 0.101 | [10] -0.005 | [4] 0.091 | [6] -0.02

ALG14 (UniProt Q96F25)
active: [3] -0.798
inactive: [2] -0.034 | [5] -0.117 | [7] -0.042 | [10] -0.002 | [4] -0.038 | [6] -0.018

ADD1 isoform 4 (UniProt P35611)
inactive: [2] 0.152 | [5] -0.213 | [7] 0.186 | [3] -0.153 | [4] -0.075

ADGB (UniProt Q8N7X0)
inactive: [2] 0.093 | [5] -0.242 | [3] 0.497 | [4] -0.139

AKAP9 isoform 6 (UniProt Q99996)
inactive: [2] -0.088 | [5] -0.317 | [7] 0.478 | [4] 0.238 | [6] -0.291

ALKBH7 (UniProt Q9BT30)
inactive: [7] 0.349 | [3] -0.01 | [6] -0.048

ALS2 (UniProt Q96Q42)
inactive: [5] 0.045 | [9] -0.073 | [6] -0.289
